Source: PMC12858398
Results are given in words; binding and its absence hold for the method and conditions named. In cells and extracts the contact can be indirect. Some entries that bind do so weakly or less than the wild type.

Amino acid sequences for entries named in this document (tags omitted).
UniProt Q9UKT9: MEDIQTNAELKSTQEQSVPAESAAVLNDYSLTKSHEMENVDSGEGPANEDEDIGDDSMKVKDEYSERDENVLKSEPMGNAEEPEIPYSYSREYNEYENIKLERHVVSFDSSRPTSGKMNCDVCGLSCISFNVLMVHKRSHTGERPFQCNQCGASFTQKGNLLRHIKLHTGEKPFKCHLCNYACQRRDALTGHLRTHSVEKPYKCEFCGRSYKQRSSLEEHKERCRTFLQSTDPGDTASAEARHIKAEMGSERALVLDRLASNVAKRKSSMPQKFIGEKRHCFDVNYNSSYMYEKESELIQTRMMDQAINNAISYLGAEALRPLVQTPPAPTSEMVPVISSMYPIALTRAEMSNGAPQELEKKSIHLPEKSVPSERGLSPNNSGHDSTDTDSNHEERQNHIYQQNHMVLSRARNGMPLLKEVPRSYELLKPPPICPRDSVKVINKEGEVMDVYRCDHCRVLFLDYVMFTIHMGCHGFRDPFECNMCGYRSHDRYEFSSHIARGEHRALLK

Molecular target: β-catenin (human, endogenous, stabilised with LY2090314) (human (endogenous in PDX2, JURL-MK1 and SW620 cells)) (UniProt P35222)
Assay: co-IP; β-catenin antibodies or control Ig; western blot of whole-cell lysates (input), elute and flowthrough of B-ALL (PDX2), myeloid leukemia (JURL-MK1) and colon cancer (SW620) cells 16 h after LY2090314 (20 nM)

| binding | Substance |
| --- | --- |
| binds | IKZF1, human (from UniProt Q13422 1-519) |
| binds | IKZF3, human (from UniProt Q9UKT9 1-509) |
